Assay results as given in PubChem BioAssay AID1671190 (National Center for Advancing Translational Sciences (NCATS), 2021).
Among all 580,000 compounds or so, about 6,100 (1.1%) were called active. The inconclusive results got no clear call from the source; some entries with a clear call stand among them for comparison. Calls come from the whole dose curve; as a rule, active = well fitted inhibition curve with a large enough effect; inconclusive = small, poorly fitted or top-dose-only effect, or another doubt; inactive = no such curve, though single readings can be large or run the other way. A potency beside an inconclusive call is a rough fit, not a confirmed value.

The chains behind the UniProt entries cited, without tags or fusion partners. Where a name states a change or a piece, a line headed by the entry shows the natural chain unless it says otherwise.
UniProt P18054: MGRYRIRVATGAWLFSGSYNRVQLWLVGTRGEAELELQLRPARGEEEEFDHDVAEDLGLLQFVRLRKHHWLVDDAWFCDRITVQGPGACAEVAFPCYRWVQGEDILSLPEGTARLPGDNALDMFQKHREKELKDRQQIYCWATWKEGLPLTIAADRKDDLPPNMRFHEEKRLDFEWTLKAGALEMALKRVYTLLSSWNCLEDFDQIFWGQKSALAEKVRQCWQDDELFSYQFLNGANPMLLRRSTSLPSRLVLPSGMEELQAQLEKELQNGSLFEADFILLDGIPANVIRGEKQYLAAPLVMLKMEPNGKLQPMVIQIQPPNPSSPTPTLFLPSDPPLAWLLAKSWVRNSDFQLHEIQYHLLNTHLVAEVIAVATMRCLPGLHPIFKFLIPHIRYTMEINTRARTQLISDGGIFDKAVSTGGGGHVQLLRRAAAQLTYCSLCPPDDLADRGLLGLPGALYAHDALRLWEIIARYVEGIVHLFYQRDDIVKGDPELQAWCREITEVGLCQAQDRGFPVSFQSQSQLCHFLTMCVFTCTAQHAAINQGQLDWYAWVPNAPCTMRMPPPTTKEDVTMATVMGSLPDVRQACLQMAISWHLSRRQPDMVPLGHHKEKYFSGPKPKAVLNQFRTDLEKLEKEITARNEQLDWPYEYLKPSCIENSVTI

Target: Polyunsaturated fatty acid lipoxygenase ALOX12 (Homo sapiens) (UniProt P18054)
Assay: Primary qHTS assay for inhibitors of human arachidonate 12S-lipoxygenase (ALOX12): Round 2
Details: purified 12hLO, xylenol orange hydroperoxide absorbance; series mostly up to 108 µM
Outline: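 Hydroperoxide product was detected by ferrous iron/xylenol orange as the 573 to 405 nm absorbance ratio. Arachidonic acid at 40 uM (final) was turned over for 30 min at room temperature by 150 nM human 12hLO, pH 7.0 Hepes buffer, after 15 min compound preincubation.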
Potency is the fitted concentration of half-maximal effect.

Structure (SMILES)	Potency
COc1ccc(NC(=O)Cn2nc(C(F)(F)F)c3c2CCCC3)c(OC)c1	inactive
C(=N\Nc1nncc2ccccc12)/c1ccccn1	inconclusive: 112 µM [inhibitor, single point]
N#Cc1nc(COc2ccc(Br)cc2)oc1NCc1ccc2c(c1)OCO2	inconclusive: 8.91 µM [inhibitor, partial curve, poor fit]
COC(=O)c1c(NC(=O)c2ccccc2)sc(Cc2ccccc2)c1C	inactive
Cc1ccc(S(=O)(=O)Nc2c(NC3CCCC3)c3ccccc3oc2=O)cc1	inactive
N#Cc1cccc(NCc2c(F)cccc2Cl)c1	inconclusive: 44.7 µM [inhibitor, partial curve, poor fit]
COc1ccc(C(=O)c2c3ccc(C(F)(F)F)cc3[n+]([O-])n2CCCC(N)=O)cc1	inactive
Cc1c(CC(=O)N2CCN(C(=O)C3COc4ccccc4O3)CC2)c(=O)oc2c(O)c(O)ccc12 (centres undefined)	inconclusive: 7.08 µM [inhibitor, partial curve, poor fit]
CCOCCOC(=O)c1nc2ccccc2nc1Nc1cc(C)cc(C)c1	active: 7.08 µM
O=C(NC1CCCCCC1)c1cc(=O)[nH]c2ccc(S(=O)(=O)N3CCOCC3)cc12	inconclusive: 63.1 µM [inhibitor, partial curve, poor fit]
Cn1c(=O)c2c(ncn2CC(=O)N2CCOCC2)n(C)c1=O	inactive
CCc1ccc(N(CC)C(=O)c2sc3nc4n(c(=O)c3c2C)CCCC4)cc1	inconclusive: 89.1 µM [inhibitor, partial curve, poor fit]
CSCCC(NS(=O)(=O)c1ccc(Cl)cc1)C(=O)OCC(=O)NC12CC3CC(CC(C3)C1)C2 (centres undefined)	inconclusive: 10 µM [inhibitor, partial curve, poor fit]
CCCCS(=O)(=O)/C=C/[C@H]1[C@H](S(=O)(=O)CCCC)[C@H]2C=C[C@@H]1C2	inconclusive: 79.4 µM [inhibitor, partial curve, poor fit]
CNCCN(C)C1CCCCC1	inconclusive: 8.91 µM [inhibitor, full curve, poor fit]
COc1ccc(-c2noc(CCC(=O)NCCCN3CCC(Cc4ccccc4)CC3)n2)cc1	inconclusive: 50.1 µM [inhibitor, partial curve, poor fit]
Cn1ncc(C#N)c1/N=C/N1CCCCCC1	inactive
CCCOc1ccc(C(NC(=O)CC(C)C)NC(=O)CC(C)C)cc1OC	inconclusive: 2.24 µM [inhibitor, full curve, poor fit]
COc1ccc(OC(=O)C(C)N2C(=O)c3ccccc3C2=O)cc1 (centres undefined)	inactive

Two records drawn at random from the list so far:
Structure (SMILES)	Potency
CCCCS(=O)(=O)/C=C/[C@H]1[C@H](S(=O)(=O)CCCC)[C@H]2C=C[C@@H]1C2	inconclusive: 79.4 µM [inhibitor, partial curve, poor fit]
CCc1ccc(N(CC)C(=O)c2sc3nc4n(c(=O)c3c2C)CCCC4)cc1	inconclusive: 89.1 µM [inhibitor, partial curve, poor fit]
